This test deals with MX-1 breast xenograft, nude mice, tumor weight change. Nature of the test: NCI In Vivo Anticancer Drug Screen. Data for tumor model Human Mammary Carcinoma MX-1 Xenograft (subcutaneous) in NU/NU Swiss (nude) mice. Particulars: T/C endpoint: optimum tumor weight change, higher T/C = larger tumour. On the procedure: The antitumor activity of compounds was measured in mice bearing transplantable tumors. Survival or tumor size were measured and the results are expressed as the measurement made in the treated group (T) divided by the measurement made in the vehicle treated control group (C). The tumor model used in this assay is Human Mammary Carcinoma MX-1 Xenograft (subcutaneous) in NU/NU Swiss (nude) mice
In general terms: Xenograft models place foreign cells or tissue in a host animal.

[1] abbreviates: dose: 200.0 mg/kg/injection, schedule: Q04DX003 (ip), vehicle: saline.
Where [2] appears, read: dose: 200.0 mg/kg/injection, schedule: Q04DX003 (ip), vehicle: saline with Tween-80.
Setting [3] is: dose: 400.0 mg/kg/injection, schedule: Q04DX003 (ip), vehicle: saline with Tween-80.
Where [4] appears, read: dose: 8.0 mg/kg/injection, schedule: Q04DX003 (ip), vehicle: saline.
Where [5] appears, read: dose: 100.0 mg/kg/injection, schedule: Q04DX003 (ip), vehicle: saline.
Where [6] appears, read: dose: 800.0 mg/kg/injection, schedule: Q04DX003 (ip), vehicle: saline.
Setting [7] is: dose: 200.0 mg/kg/injection, schedule: Q04DX003 (ip), vehicle: Klucel (hydroxypropylcellulose) (HPC).

Molecules are shown by their SMILES. The list shows only some results of the screen, not a fair sample: it gathers tests that were run many times, whatever their T/C, doses with no T/C, and many T/C values between a quarter and a half above the control. Other doses and runs of a compound stand elsewhere. T/C gives the treated animals as a percentage of the vehicle group. Schedules are NCI's codes, read here as Q, the interval in days (D) or hours (H), X, the number of doses. Some T/C values are followed by the survivors on the day toxicity was checked, most often the fifth; without a count, all were alive then. Some entries give survivors of the animals treated and no T/C: the source files T/C as zero there, which appears to mark a toxic dose or a test without result, not a measured value. Counts of survivors are from the toxicity check (mostly the fifth day) where no day follows; animals may have died later. Some entries were tested several times; their values stand side by side, smallest first.

For `Oc1ccc(O)cc1`, the T/C was 139 % of control (dose: 25.0 mg/kg/injection, schedule: Q04DX003 (ip), vehicle: saline, evaluated on day 39) and 129 % of control [4 of 5 alive on day 39] (dose: 50.0 mg/kg/injection, schedule: Q04DX003 (ip), vehicle: saline, evaluated on day 39). Also, the survivor count under setting [1] was 0 of 5 on day 39.
`CCN(CC)CCCC(C)Nc1c2ccc(Cl)cc2nc2ccc(OC)cc12` (stereo not drawn): the survivor count by setting is: under setting [2], 0 of 5 on day 40; under setting [3], 0 of 5 on day 40.
Regarding `COc1cc([C@@H]2c3cc4c(c(O)c3C[C@H]3COC(=O)[C@@H]32)OCO4)cc(OC)c1O`, the survivor count reads like this: (dose: 12.5 mg/kg/injection, schedule: Q04DX003 (ip), vehicle: saline) 3 of 5 on day 35; (dose: 25.0 mg/kg/injection, schedule: Q04DX003 (ip), vehicle: saline) 0 of 5 on day 35.
Regarding `CC[C@](O)(C(=O)O)c1cc2n(c(=O)c1CO)Cc1cc3ccccc3nc1-2`, the survivor count is recorded as 3 of 5 on day 40 under setting [4]; 3 of 5 on day 40 (dose: 32.0 mg/kg/injection, schedule: Q04DX003 (ip), vehicle: saline); 2 of 5 on day 40 (dose: 64.0 mg/kg/injection, schedule: Q04DX003 (ip), vehicle: saline).
On to `O=P1(NCCCl)OCCCN1CCCl` (stereo not drawn), for which the survivor count was 1 of 5 on day 36 under setting [5]; 0 of 5 on day 34 and 0 of 5 on day 36 under setting [1]; 0 of 5 on day 34 (dose: 400.0 mg/kg/injection, schedule: Q04DX003 (ip), vehicle: saline); 0 of 5 on day 34 under setting [6].
With `O=C[C@@H](CO)O[C@H](C=O)n1cnc2c(=O)[nH]cnc21`, the survivor count reads like this: under setting [5], 3 of 5 on day 41; under setting [1], 3 of 5 on day 41; under setting [6], 0 of 5 on day 41.
As for `C[C@]12CC[C@@H]3c4ccc(OC(=O)Cc5ccc(N(CCCl)CCCl)cc5)cc4CC[C@H]3[C@@H]1CC[C@@H]2OC(=O)Cc1ccc(N(CCCl)CCCl)cc1`, the survivor count is reported as 2 of 5 on day 38 under setting [2]; 0 of 5 on day 38 under setting [3]; 1 of 5 on day 38 (dose: 1600.0 mg/kg/injection, schedule: Q04DX003 (ip), vehicle: saline with Tween-80).
Turning to `O=C1N(Cl)C(=O)C(c2ccc(Cl)cc2)(c2ccc(Cl)cc2)N1Cl`, the survivor count under setting [2] is given as 3 of 5 on day 35; the survivor count under setting [3] is reported as 1 of 5 on day 35; the survivor count (dose: 800.0 mg/kg/injection, schedule: Q04DX003 (ip), vehicle: saline with Tween-80) was 0 of 5 on day 35.
With `CC(C)=CCNc1ncnc2c1ncn2C1OC(CO)C(O)C1O` (stereo not drawn), the survivor count (dose: 800.0 mg/kg/injection, schedule: Q04DX003 (ip), vehicle: suspension in saline) is on record as 1 of 5 on day 34.
In the case of `C=CC(=O)NCNC(=O)C=C`, the survivor count (dose: 400.0 mg/kg/injection, schedule: Q04DX003 (ip), vehicle: suspension in saline) was 2 of 5 on day 40.
Take `OCC1OC(n2cnc3c2NC=NC[C@H]3O)CC1O` (stereo partly drawn): the survivor count (dose: 32.0 mg/kg/injection, schedule: Q04DX003 (ip), vehicle: water) was 2 of 5 on day 36.
On to `O=Cc1ccc(O)c(O)c1`, for which the T/C (dose: 100.0 mg/kg/injection, schedule: Q04DX003 (ip), vehicle: saline with Tween-80, evaluated on day 34) is 142 % of control and the T/C (dose: 200.0 mg/kg/injection, schedule: Q04DX003 (ip), vehicle: saline with Tween-80, evaluated on day 34) is 144 % of control.
Consider `CC1OC(OC2CC(O)(C(=O)CO)Cc3c(O)c4c(c(O)c32)C(=O)c2ccccc2C4=O)CC(N)C1O` (stereo not drawn), for which the survivor count (dose: 1.0 mg/kg/injection, schedule: Q04DX003 (ip), vehicle: water) is reported as 0 of 5 on day 34.
Consider `COc1cc([C@@H]2c3cc4c(c(O)c3C[C@H]3COC(=O)[C@@H]32)OCO4)cc(OC)c1OC`, for which the survivor count (dose: 20.0 mg/kg/injection, schedule: Q04DX003 (ip), vehicle: saline) is on record as 2 of 5 on day 35.
Turning to `O=C(NO)c1ccccc1`, the survivor count (dose: 200.0 mg/kg/injection, schedule: Q01DX003 (ip), vehicle: saline) is on record as 2 of 5 on day 39.
As for `Cc1c(N)nc(C(CC(N)=O)NCC(N)C(N)=O)nc1C(=O)NC(C(=O)NC(C)C(O)C(C)C(=O)NC(C(=O)NCCc1nc(-c2nc(C(=O)NCCCNC(C)c3ccccc3)cs2)cs1)C(C)O)C(OC1OC(CO)C(O)C(O)C1OC1OC(CO)C(O)C(OC(N)=O)C1O)c1cnc[nH]1` (stereo not drawn), the survivor count by setting is: (dose: 7.5 mg/kg/injection, schedule: Q04DX003 (ip), vehicle: saline) 3 of 5 on day 40; (dose: 30.0 mg/kg/injection, schedule: Q04DX003 (ip), vehicle: saline) 3 of 5 on day 40; (dose: 60.0 mg/kg/injection, schedule: Q04DX003 (ip), vehicle: saline) 1 of 5 on day 36 and 1 of 5 on day 40.
Regarding `CN(C)N=Nc1ccccc1`, the survivor count is, setting by setting: (dose: 100.0 mg/kg/injection, schedule: Q04DX003 (ip), vehicle: Klucel (hydroxypropylcellulose) (HPC)) 3 of 5 on day 36; under setting [7], 0 of 5 on day 36.
`O=c1[nH]cnc2n[nH]nc12`: the survivor count by setting is: (dose: 800.0 mg/kg/injection, schedule: Q04DX003 (ip), vehicle: Klucel (hydroxypropylcellulose) (HPC)) 2 of 5 on day 36; (dose: 1600.0 mg/kg/injection, schedule: Q04DX003 (ip), vehicle: Klucel (hydroxypropylcellulose) (HPC)) 0 of 5 on day 36.
As to `Nc1nc(N)c2cc(CNc3ccc(C(=O)NC(CC(=O)O)CC(=O)O)cc3)ccc2n1`, the survivor count is listed as 1 of 5 on day 40 under setting [7] and 1 of 5 on day 40 (dose: 400.0 mg/kg/injection, schedule: Q04DX003 (ip), vehicle: Klucel (hydroxypropylcellulose) (HPC)).
As to `CC(=O)OCC1OC(n2ccc(N)nc2=O)C(OC(C)=O)C1OC(C)=O` (stereo not drawn), the survivor count is, setting by setting: (dose: 600.0 mg/kg/injection, schedule: Q04DX003 (ip), vehicle: suspension in saline) 1 of 5 on day 40; (dose: 1200.0 mg/kg/injection, schedule: Q04DX003 (ip), vehicle: suspension in saline) 0 of 5 on day 40; (dose: 2400.0 mg/kg/injection, schedule: Q04DX003 (ip), vehicle: suspension in saline) 1 of 5 on day 40.
Take `COc1cccc2c1C(=O)c1c(O)c3c(c(O)c1C2=O)C[C@@](O)(C(C)=O)C[C@@H]3OC1CC(N)C(O)C(C)O1` (stereo partly drawn): the survivor count (dose: 2.0 mg/kg/injection, schedule: Q04DX003 (ip), vehicle: saline) was 3 of 5 on day 36; the survivor count (dose: 4.0 mg/kg/injection, schedule: Q04DX003 (ip), vehicle: saline) is recorded as 0 of 5 on day 36; the survivor count under setting [4] is recorded as 0 of 5 on day 36.
For `COC1C(O)CC(OC2CC(OC3CC(O[C@@H]4C(=O)c5c(cc6cc(OC7CC(OC8CC(O)C(O)C(C)O8)C(O)C(C)O7)c(C)c(O)c6c5O)C[C@H]4[C@H](OC)C(=O)[C@@H](O)[C@@H](C)O)OC(C)C3O)OC(C)C2O)OC1C` (stereo partly drawn), the survivor count by setting is: (dose: 1.5 mg/kg/injection, schedule: Q04DX003 (ip), vehicle: saline) 0 of 5 on day 40; (dose: 3.0 mg/kg/injection, schedule: Q04DX003 (ip), vehicle: saline) 1 of 5 on day 40 and 2 of 5 on day 42; (dose: 6.0 mg/kg/injection, schedule: Q04DX003 (ip), vehicle: saline) 0 of 5 on day 35 and 0 of 5 on day 40; (dose: 12.0 mg/kg/injection, schedule: Q04DX003 (ip), vehicle: saline) 0 of 5 on day 35.
Consider `C=CC(=O)N1CN(C(=O)C=C)CN(C(=O)C=C)C1`, for which the survivor count (dose: 25.0 mg/kg/injection, schedule: Q04DX003 (ip), vehicle: saline with Tween-80) is on record as 0 of 5 on day 35; the survivor count (dose: 50.0 mg/kg/injection, schedule: Q04DX003 (ip), vehicle: saline with Tween-80) is recorded as 0 of 5 on day 35; the survivor count (dose: 100.0 mg/kg/injection, schedule: Q04DX003 (ip), vehicle: saline with Tween-80) was 0 of 5 on day 35.

The values are drawn from PubChem BioAssay AID294 (DTP/NCI, 2004).
